For this assay, the target named is Rluc-Cdc42 (human CDC42, cell division control protein 42 homolog, with N-terminal Rluc tag) (human) (UniProt P60953). In words: FRET or BRET.

Chains of the proteins cited; added tags and fusions are not shown. Lines headed by an entry give the natural chain unless they say otherwise; changes in a name come on top. A line that says so, or that is headed by a name, gives the form on record, which may keep a tag or linker.
Rluc-Cdc42 (human CDC42, cell division control protein 42 homolog, with N-terminal Rluc tag) (P60953, form named): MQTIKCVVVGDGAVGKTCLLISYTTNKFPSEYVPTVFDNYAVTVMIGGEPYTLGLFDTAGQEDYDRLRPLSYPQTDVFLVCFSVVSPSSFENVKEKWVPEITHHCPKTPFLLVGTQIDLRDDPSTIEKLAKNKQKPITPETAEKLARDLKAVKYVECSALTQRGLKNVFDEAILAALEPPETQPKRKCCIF
GFP-PAK1 (human p21-activated kinase 1 with N-terminal GFP tag) (Q13153-2, form named): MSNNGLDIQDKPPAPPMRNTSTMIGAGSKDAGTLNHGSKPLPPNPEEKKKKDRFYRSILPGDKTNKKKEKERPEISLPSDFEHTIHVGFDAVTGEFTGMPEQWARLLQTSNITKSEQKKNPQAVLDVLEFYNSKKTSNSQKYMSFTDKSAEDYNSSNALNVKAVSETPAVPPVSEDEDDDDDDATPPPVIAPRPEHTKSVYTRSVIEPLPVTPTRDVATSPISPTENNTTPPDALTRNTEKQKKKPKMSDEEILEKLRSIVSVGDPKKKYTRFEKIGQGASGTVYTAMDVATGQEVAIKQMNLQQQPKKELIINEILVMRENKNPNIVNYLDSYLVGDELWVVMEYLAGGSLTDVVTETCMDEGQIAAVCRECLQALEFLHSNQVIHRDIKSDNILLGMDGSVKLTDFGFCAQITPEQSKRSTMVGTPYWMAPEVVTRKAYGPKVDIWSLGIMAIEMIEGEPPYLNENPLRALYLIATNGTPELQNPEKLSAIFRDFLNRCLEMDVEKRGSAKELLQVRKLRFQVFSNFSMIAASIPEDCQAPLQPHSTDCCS

No constants are given. Whether binding was seen depends on the method and setting. In cells and extracts the contact can be indirect. Some results given as binding are weak or reduced against the parent protein; the word gives no strength.

In the case of “GFP-PAK1 (human p21-activated kinase 1 with N-terminal GFP tag) (from UniProt Q13153-2 1-553)”, the binding entry is given as “binds”.

For the origin of these results see publication doi:10.1101/2024.12.18.629081.
